The target of the series is T1, PTBP1 RRM1 (human) (UniProt P26599).
T1 sequence (looked up): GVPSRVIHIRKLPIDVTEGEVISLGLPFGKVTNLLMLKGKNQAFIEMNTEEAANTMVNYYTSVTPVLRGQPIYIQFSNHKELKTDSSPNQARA
As to the kind of experiment: EMSA. The note with it: EMSA: 10 mM Hepes pH 7.3, 20 mM KCl, 1 mM MgCl2, 1 mM DTT, tRNA (10 ug/ml in Methods, 10 ug/uL in Fig S2 legend), room temperature, 1% TBE agarose, recombinant protein, residues 55-147, protein details: N-terminal His6 (pET28a), label: 3' FTSC (fluorescein-5-thiosemicarbazide). A general note: A gel shift assay detects complexes by their altered migration in electrophoresis.

The exact form of at least one protein or probe is not confirmed. Weaker means in comparison with the reference protein, sequence or condition of that experiment. Where a protein sequence is shown, tags need not be part of it. At least one verdict was read from the data and is not stated in words by the source.

As for “ACGCUUCUCUCAGGGAAAAACAUGC [MCL1 3'UTR 25-mer RNA]”, the binding result runs as follows: (30 uM RRM1, 50 nM RNA, no MCL1, tRNA) “binds”; (plus MCL1 50-140 uM, MCL1 displaces RNA) “binds more weakly”.

(Values after article PMC10244698, “Polypyrimidine tract binding protein 1 (PTBP1) contains a novel regulatory sequence, the rBH3, that binds the prosurvival protein MCL1” (The Journal of Biological Chemistry, 2023).)
